# The list is a part of this screen's results and no random one: it gathers tests that were run many times, whatever their T/C, doses with no T/C, and many T/C values between a quarter and a half above the control. Further doses and runs are listed elsewhere. T/C is the treated group as % of the vehicle group. Schedules are NCI's codes, taken here to give the interval after Q, in days (D) or hours (H), and the number of doses after X. Some T/C values carry the count of animals alive at the toxicity check (mostly the fifth day); without a count, all were alive then. Some entries hold several experiments; their values stand side by side, smallest first. Some entries give survivors of the animals treated and no T/C: the source files T/C as zero there, which appears to mark a toxic dose or a test without result, not a measured value. Survivors were counted at the toxicity check, usually on the fifth day, unless a day is given; later deaths do not show.
# System: CD8F1 mice, subcutaneous mammary adenocarcinoma, T/C%
# Assay: NCI In Vivo Anticancer Drug Screen. Data for tumor model Mammary Adenocarcinoma CD8F1 (subcutaneous) in CD8F1
# Conditions: higher T/C = larger tumour
# How it was run: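 Transplantable tumors were established in mice, animals were dosed with compound or vehicle, and survival or tumor size was then measured in both groups. The treated result was divided by the control result.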
# [1] = T/C endpoint: median tumor weight change, dose: 1200.0 mg/kg/injection, schedule: Q01DX001 (ip), vehicle: Klucel (hydroxypropylcellulose) (HPC)
# [2] = T/C endpoint: median tumor weight change, dose: 500.0 mg/kg/injection, schedule: Q01DX001 (ip), vehicle: saline with Tween-80
# [3] = T/C endpoint: median tumor weight (est.), dose: 25.0 mg/kg/injection, schedule: Q07DX005 (ip), vehicle: saline, evaluated on day 30
# [4] = T/C endpoint: median tumor weight (est.), dose: 200.0 mg/kg/injection, schedule: Q07DX005 (ip), vehicle: Klucel (hydroxypropylcellulose) (HPC)
# [5] = T/C endpoint: median tumor weight (est.), dose: 100.0 mg/kg/injection, schedule: Q07DX005 (ip), vehicle: Klucel (hydroxypropylcellulose) (HPC), evaluated on day 30
structure (smiles),measurement,setting,value
C[C@@]1(CO)[C@H](O)CC[C@@]2(C)[C@H]1CC[C@H]1C[C@@H]3C[C@@]12CC[C@@]3(O)COC(=O)CN,survivor count,"T/C endpoint: median tumor weight change, dose: 150.0 mg/kg/injection, schedule: Q01DX001 (ip), vehicle: Klucel (hydroxypropylcellulose) (HPC)",6 of 10 on day 40
same,survivor count,"T/C endpoint: median tumor weight change, dose: 300.0 mg/kg/injection, schedule: Q01DX001 (ip), vehicle: Klucel (hydroxypropylcellulose) (HPC)",0 of 10 on day 28 and 1 of 10 on day 40
same,survivor count,"T/C endpoint: median tumor weight change, dose: 600.0 mg/kg/injection, schedule: Q01DX001 (ip), vehicle: Klucel (hydroxypropylcellulose) (HPC)",0 of 10 on day 28
same,survivor count,[1],0 of 10 on day 28
same,survivor count,"T/C endpoint: median tumor weight change, dose: 2400.0 mg/kg/injection, schedule: Q01DX001 (ip), vehicle: Klucel (hydroxypropylcellulose) (HPC)",0 of 10 on day 28
same,T/C,"T/C endpoint: median tumor weight change, dose: 500.0 micrograms/kg/injection, schedule: Q01DX001 (ip), vehicle: saline + alcohol, evaluated on day 29",134 % of control
O=C1C(O)=C(c2ccccc2)C(=O)C(O)=C1c1ccccc1,survivor count,"T/C endpoint: median tumor weight change, dose: 250.0 mg/kg/injection, schedule: Q01DX001 (ip), vehicle: saline with Tween-80",1 of 10 on day 32
same,survivor count,[2],0 of 10 on day 32
Nc1ncnc2c1nnn2C1OC(CO)C(O)C1O (configuration not stated),T/C,"T/C endpoint: median tumor weight change, dose: 62.0 mg/kg/injection, schedule: Q01DX001 (ip), vehicle: Klucel (hydroxypropylcellulose) (HPC), evaluated on day 28",135 % of control
same,survivor count,"T/C endpoint: median tumor weight change, dose: 500.0 mg/kg/injection, schedule: Q01DX001 (ip), vehicle: Klucel (hydroxypropylcellulose) (HPC)",1 of 10 on day 31 and 3 of 10 on day 28
same,survivor count,"T/C endpoint: median tumor weight change, dose: 1000.0 mg/kg/injection, schedule: Q01DX001 (ip), vehicle: Klucel (hydroxypropylcellulose) (HPC)",0 of 10 on day 28 and 0 of 10 on day 31
COc1cc2cc3cc4cc(OC)c(OC)cc4c(C)[n+]3cc2cc1OC (tested in a mixture with another compound),survivor count,"T/C endpoint: median tumor weight (est.), dose: 400.0 mg/kg/injection, schedule: Q07DX005 (ip), vehicle: saline",1 of 10 on day 30
NCCc1ccc(O)c(O)c1,survivor count,"T/C endpoint: mean tumor weight, dose: 150.0 mg/kg/injection, schedule: Q07DX005 (ip), vehicle: saline",3 of 6
same,T/C,"T/C endpoint: median tumor weight (est.), dose: 50.0 mg/kg/injection, schedule: Q07DX005 (ip), vehicle: saline, evaluated on day 30",144 % of control [7 of 10 alive]
same,survivor count,"T/C endpoint: median tumor weight (est.), dose: 150.0 mg/kg/injection, schedule: Q07DX005 (ip), vehicle: saline",3 of 6
same,T/C,"T/C endpoint: median tumor weight (est.), dose: 200.0 mg/kg/injection, schedule: Q07DX005 (ip), vehicle: saline, evaluated on day 32",141 % of control [7 of 10 alive]
same,survivor count,"T/C endpoint: median tumor weight (est.), dose: 600.0 mg/kg/injection, schedule: Q07DX005 (ip), vehicle: saline",3 of 6
O=[N+]([O-])O.[Ga],T/C,"T/C endpoint: mean tumor weight, dose: 100.0 mg/kg/injection, schedule: Q01DX009 (ip), vehicle: saline, evaluated on day 59",149 % of control [9 of 10 alive]
same,survivor count,"T/C endpoint: mean tumor weight, dose: 200.0 mg/kg/injection, schedule: Q07DX005 (ip), vehicle: saline",5 of 10
same,survivor count,"T/C endpoint: mean tumor weight, dose: 250.0 mg/kg/injection, schedule: Q07DX005 (ip), vehicle: saline",4 of 10
same,survivor count,"T/C endpoint: mean tumor weight, dose: 300.0 mg/kg/injection, schedule: Q07DX005 (ip), vehicle: saline",1 of 10
same,T/C,"T/C endpoint: median tumor weight (est.), dose: 25.0 mg/kg/injection, schedule: Q04DX005 (ip), vehicle: saline, evaluated on day 30",135 % of control
same,T/C,[3],143 % of control
same,T/C,"T/C endpoint: median tumor weight (est.), dose: 100.0 mg/kg/injection, schedule: Q04DX005 (ip), vehicle: saline, evaluated on day 30",147 % of control [8 of 10 alive]
same,T/C,"T/C endpoint: median tumor weight (est.), dose: 100.0 mg/kg/injection, schedule: Q07DX004 (ip), vehicle: saline, evaluated on day 30",144 % of control
same,survivor count,"T/C endpoint: median tumor weight (est.), dose: 200.0 mg/kg/injection, schedule: Q07DX005 (ip), vehicle: saline",1 of 10
N=c1nc2n(cc1F)[C@@H]1O[C@H](CO)[C@@H](O)[C@@H]1O2,T/C,[3],129 % of control
Cc1c(-c2ccc(-c3ccccc3F)cc2)nc2ccc(F)cc2c1C(=O)O,T/C,"T/C endpoint: median tumor weight change, dose: 22.5 mg/kg/injection, schedule: Q01DX001 (ip), vehicle: water, evaluated on day 30",144 % of control
same,survivor count,"T/C endpoint: median tumor weight change, dose: 150.0 mg/kg/injection, schedule: Q01DX005 (ip), vehicle: water",0 of 10 on day 32
same,survivor count,"T/C endpoint: median tumor weight change, dose: 180.0 mg/kg/injection, schedule: Q01DX001 (ip), vehicle: water",1 of 10 on day 30
C=C(C)C(=NC(C)(C)C)Nc1ccccc1,survivor count,[2],0 of 10 on day 36
same,survivor count,"T/C endpoint: median tumor weight change, dose: 1000.0 mg/kg/injection, schedule: Q01DX001 (ip), vehicle: saline with Tween-80",1 of 10 on day 36
COc1ccc(C(N)=O)cc1N=NN(C)C,survivor count,[4],0 of 10 on day 30
C=C(C(=O)O)C(N)C(=O)O (configuration not stated),survivor count,"T/C endpoint: median tumor weight change, dose: 1000.0 mg/kg/injection, schedule: Q01DX001 (ip), vehicle: saline",5 of 10 on day 36
CN(CCN(C)C(=O)CCOS(C)(=O)=O)C(=O)CCOS(C)(=O)=O,survivor count,"T/C endpoint: median tumor weight change, dose: 500.0 mg/kg/injection, schedule: Q01DX001 (ip), vehicle: saline",4 of 10 on day 28
same,survivor count,"T/C endpoint: median tumor weight change, dose: 500.0 mg/kg/injection, schedule: Q01DX001 (ip), vehicle: suspension in saline",1 of 10 on day 29 and 6 of 10 on day 35
same,survivor count,"T/C endpoint: median tumor weight change, dose: 1000.0 mg/kg/injection, schedule: Q01DX001 (ip), vehicle: suspension in saline",0 of 10 on day 29 and 0 of 10 on day 35
same,survivor count,"T/C endpoint: median tumor weight change, dose: 2000.0 mg/kg/injection, schedule: Q01DX001 (ip), vehicle: suspension in saline",0 of 10 on day 35
COC1C(/C=C/C(C)=O)OC2OC(C)(C)OC21 (configuration not stated),survivor count,"T/C endpoint: median tumor weight (est.), dose: 400.0 mg/kg/injection, schedule: Q07DX005 (ip), vehicle: Klucel (hydroxypropylcellulose) (HPC)",2 of 10 on day 30
OC(CBr)C(O)C(O)C(O)CBr (configuration not stated),T/C,[5],"29 [9 of 10 alive], 87 [9 of 10 alive on day 30], 100, 175 % of control"
same,T/C,"T/C endpoint: median tumor weight (est.), dose: 200.0 mg/kg/injection, schedule: Q07DX005 (ip), vehicle: Klucel (hydroxypropylcellulose) (HPC), evaluated on day 30","27, 68 [9 of 10 alive on day 30], 84, 118 % of control"
same,T/C,"T/C endpoint: median tumor weight (est.), dose: 400.0 mg/kg/injection, schedule: Q07DX005 (ip), vehicle: Klucel (hydroxypropylcellulose) (HPC), evaluated on day 30","75 [9 of 10 alive], 86, 91 % of control"
same,T/C,"T/C endpoint: median tumor weight (est.), dose: 800.0 mg/kg/injection, schedule: Q07DX005 (ip), vehicle: Klucel (hydroxypropylcellulose) (HPC), evaluated on day 30","16 [9 of 10 alive], 44, 75 % of control [8 of 10 alive on day 30]"
same,survivor count,"T/C endpoint: median tumor weight (est.), dose: 800.0 mg/kg/injection, schedule: Q07DX005 (ip), vehicle: Klucel (hydroxypropylcellulose) (HPC)",6 of 10
same,survivor count,"T/C endpoint: median tumor weight (est.), dose: 1200.0 mg/kg/injection, schedule: Q07DX005 (ip), vehicle: Klucel (hydroxypropylcellulose) (HPC)",1 of 10
same,survivor count,[1],5 of 10 on day 28
COc1cccc2c1C(=O)c1c(O)c3c(c(O)c1C2=O)C[C@@](O)(C(O)CO)C[C@@H]3OC1CC(N(Cc2ccccc2)Cc2ccccc2)C(O)C(C)O1 (some centres not stated),survivor count,"T/C endpoint: median tumor weight change, dose: 250.0 mg/kg/injection, schedule: Q01DX001 (ip), vehicle: water",5 of 10 on day 28
same,survivor count,"T/C endpoint: median tumor weight change, dose: 500.0 mg/kg/injection, schedule: Q01DX001 (ip), vehicle: water",1 of 10 on day 28
CCCCCC[C@H]([C@H](C)O)n1cnc2c(N)ncnc21,T/C,"T/C endpoint: median tumor weight (est.), dose: 6.25 mg/kg/injection, schedule: Q07DX005 (ip), vehicle: Klucel (hydroxypropylcellulose) (HPC), evaluated on day 30",143 % of control [7 of 10 alive on day 30]
same,T/C,[5],133 % of control
same,survivor count,[4],1 of 10 on day 30 and 5 of 10
same,survivor count,"T/C endpoint: median tumor weight change, dose: 400.0 mg/kg/injection, schedule: Q01DX001 (ip), vehicle: Klucel (hydroxypropylcellulose) (HPC)",1 of 10 on day 28
same,survivor count,"T/C endpoint: median tumor weight change, dose: 800.0 mg/kg/injection, schedule: Q01DX001 (ip), vehicle: Klucel (hydroxypropylcellulose) (HPC)",0 of 10 on day 28
CCN(CC)CC[n+]1ccc2c(C)c3[nH]c4ccc(O)cc4c3c(C)c2c1,survivor count,"T/C endpoint: median tumor weight change, dose: 120.0 mg/kg/injection, schedule: Q01DX001 (ip), vehicle: suspension in saline",0 of 10 on day 36 and 2 of 10 on day 34
same,survivor count,"T/C endpoint: median tumor weight change, dose: 125.0 mg/kg/injection, schedule: Q01DX001 (ip), vehicle: suspension in saline","0 of 10 on day 25, 0 of 10 on day 28, 1 of 10 on day 35, 3 of 10 on day 38"
same,survivor count,"T/C endpoint: median tumor weight change, dose: 250.0 mg/kg/injection, schedule: Q01DX001 (ip), vehicle: suspension in saline","0 of 10 on day 25, 0 of 10 on day 28, 1 of 10 on day 38"
CCOC(=O)c1ccc(NN=NCCF)cc1,survivor count,"T/C endpoint: median tumor weight change, dose: 250.0 mg/kg/injection, schedule: Q01DX001 (ip), vehicle: distilled water + Tween-80",0 of 10 on day 40
